Experimental data published in paper PMC11480952.
No constants are given. Whether binding was seen depends on the method and setting. Binding seen in cells or lysates may run through a third protein. Some binding calls cover weakened binding; strength is not graded here.

Protein sequences, listed by entry. Tags and fused reporters are not part of them.
UniProt Q13185: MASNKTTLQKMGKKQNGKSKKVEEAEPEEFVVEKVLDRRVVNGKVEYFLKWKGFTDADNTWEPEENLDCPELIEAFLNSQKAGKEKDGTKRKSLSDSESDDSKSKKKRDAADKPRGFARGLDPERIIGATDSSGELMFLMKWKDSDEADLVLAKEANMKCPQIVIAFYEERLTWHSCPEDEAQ
UniProt P38936: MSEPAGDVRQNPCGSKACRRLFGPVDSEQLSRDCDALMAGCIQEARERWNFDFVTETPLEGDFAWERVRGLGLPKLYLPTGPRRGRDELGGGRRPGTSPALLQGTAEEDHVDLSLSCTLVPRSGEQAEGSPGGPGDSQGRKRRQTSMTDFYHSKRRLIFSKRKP
UniProt Q15796: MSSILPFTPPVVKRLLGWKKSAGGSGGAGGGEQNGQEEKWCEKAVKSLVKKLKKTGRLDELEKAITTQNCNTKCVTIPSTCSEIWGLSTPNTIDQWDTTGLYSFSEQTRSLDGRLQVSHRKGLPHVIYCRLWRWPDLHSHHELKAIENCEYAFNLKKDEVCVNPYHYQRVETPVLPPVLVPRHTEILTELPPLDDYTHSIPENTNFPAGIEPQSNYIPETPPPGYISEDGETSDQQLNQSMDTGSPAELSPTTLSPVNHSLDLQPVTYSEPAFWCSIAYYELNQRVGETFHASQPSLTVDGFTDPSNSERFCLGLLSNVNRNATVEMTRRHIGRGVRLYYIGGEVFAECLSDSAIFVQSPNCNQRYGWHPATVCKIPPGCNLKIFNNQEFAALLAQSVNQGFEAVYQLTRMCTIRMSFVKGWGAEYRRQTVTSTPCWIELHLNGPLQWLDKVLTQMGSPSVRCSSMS
UniProt P13010: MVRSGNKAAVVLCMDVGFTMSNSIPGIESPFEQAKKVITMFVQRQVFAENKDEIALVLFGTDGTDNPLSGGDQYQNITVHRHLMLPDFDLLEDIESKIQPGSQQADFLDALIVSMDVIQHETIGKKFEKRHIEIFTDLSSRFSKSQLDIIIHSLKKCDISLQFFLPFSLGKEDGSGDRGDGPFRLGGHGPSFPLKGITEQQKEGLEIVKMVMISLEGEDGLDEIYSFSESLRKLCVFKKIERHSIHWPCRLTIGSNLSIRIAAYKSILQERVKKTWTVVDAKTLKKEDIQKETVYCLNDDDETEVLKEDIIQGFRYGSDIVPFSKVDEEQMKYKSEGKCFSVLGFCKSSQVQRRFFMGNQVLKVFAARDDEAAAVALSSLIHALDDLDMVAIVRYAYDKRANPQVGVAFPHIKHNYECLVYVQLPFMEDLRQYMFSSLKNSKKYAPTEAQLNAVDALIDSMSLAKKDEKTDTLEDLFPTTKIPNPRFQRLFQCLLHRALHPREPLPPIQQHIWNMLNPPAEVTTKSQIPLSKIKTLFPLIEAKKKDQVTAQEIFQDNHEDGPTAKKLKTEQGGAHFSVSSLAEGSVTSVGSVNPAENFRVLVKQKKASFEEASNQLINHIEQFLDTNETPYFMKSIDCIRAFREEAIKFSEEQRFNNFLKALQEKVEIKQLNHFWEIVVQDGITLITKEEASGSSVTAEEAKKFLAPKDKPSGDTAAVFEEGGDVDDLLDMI
UniProt Q15915: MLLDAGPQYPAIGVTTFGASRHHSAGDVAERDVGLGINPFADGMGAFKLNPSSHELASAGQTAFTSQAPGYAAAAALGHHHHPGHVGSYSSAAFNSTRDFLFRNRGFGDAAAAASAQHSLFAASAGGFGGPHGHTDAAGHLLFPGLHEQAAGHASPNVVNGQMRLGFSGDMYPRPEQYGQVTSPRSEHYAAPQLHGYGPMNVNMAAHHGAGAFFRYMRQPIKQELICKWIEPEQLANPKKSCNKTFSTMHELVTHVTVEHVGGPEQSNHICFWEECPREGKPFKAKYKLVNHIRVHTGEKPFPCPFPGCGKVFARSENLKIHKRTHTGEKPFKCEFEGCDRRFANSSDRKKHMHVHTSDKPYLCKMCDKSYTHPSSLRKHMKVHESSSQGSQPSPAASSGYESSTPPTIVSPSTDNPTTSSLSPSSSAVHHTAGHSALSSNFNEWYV

Target: serine/threonine protein kinase ARAF (v-raf murine sarcoma 3611 viral oncogene homolog) (human (endogenous in liver cancer cells)) (UniProt P10398)
Test: co-IP; co-immunoprecipitation with anti-ARAF, Western blot; liver cancer cells of the rLV group and the rLV-CARM1 (CARM1 overexpressing) group compared

Row | binding | Substance
1 | binds | CBX3 (from UniProt Q13185 1-183)
2 | binds | P21WAF1/Cip1 (from UniProt P38936 1-164)
3 | binds | SMAD2 (from UniProt Q15796 1-467)
4 | binds | XRCC5 (from UniProt P13010 1-732)
5 | binds | ZIC1 (from UniProt Q15915 1-447)
